PubChem BioAssay AID1224826, NIAID, 2016
Test: 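Genes that change LPS-induced Tnf promoter activity in mouse macrophages when knocked down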 (primary screen). Cells: RAW264.7 G9 macrophages from mouse bearing reporters for p65 (GFP) and the Tnf promoter (mCherry). Reagents: siRNA pool against mouse genes, 100 nM. Duration: 16 h of LPS stimulation, after 2 days of siRNA transfection. Treatment: bacterial lipopolysaccharide (Salmonella minnesota R595), 10 ng/ml. Measurement: 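Imaged Tnf reporter mCherry in nuclei, minus background, normalised per plate to the median and expressed as robust z-scores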. Scale: Tnf reporter robust z-score: higher = stronger Tnf promoter reporter signal after LPS. Rule for the call: 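a well counts as active at a score of -1.3 or below (Tlr4 knock-down control median) or above 3 (raised signal); controls and wells holding fewer than 50 cells are excluded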. Calls: active = Tnf reporter clearly lowered or raised; inactive = no clear change in Tnf reporter.
The deposit covers about 17,000 reagents; shown is a random part of them. In the full data, about 1,110 (6.6%) got an active call. 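Active means lowered or raised reporter signal; replicate intensities are raw and not normalised per plate.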 Further read-outs or replicates are left out here. No sequences are given here.

How did the screen score Gfm2 (GeneID 320806)?
Tnf reporter robust z-score: -0.22; fewer than 50 cells in well: enough cells in well; Call: inactive

How did the screen score Prrg2 (GeneID 65116)?
Tnf reporter robust z-score: 2.89; fewer than 50 cells in well: enough cells in well; Call: inactive

How did the screen score Mug1 (GeneID 17836)?
Tnf reporter robust z-score: -0.51; fewer than 50 cells in well: enough cells in well; Call: inactive

What did the screen give for Aadacl4fm1 (GeneID 381572)?
Tnf reporter robust z-score: -0.62; fewer than 50 cells in well: enough cells in well; Call: inactive

With Sync (GeneID 68828), what was measured?
Tnf reporter robust z-score: 0.63; fewer than 50 cells in well: enough cells in well; Call: inactive

With Sytl2 (GeneID 83671), what does the deposit list?
Tnf reporter robust z-score: 0.78; fewer than 50 cells in well: enough cells in well; Call: inactive

With Agxt (GeneID 11611), what was measured?
Tnf reporter robust z-score: -0.22; fewer than 50 cells in well: enough cells in well; Call: inactive

What did the screen give for Nod2 (GeneID 257632)?
Tnf reporter robust z-score: 0.98; fewer than 50 cells in well: enough cells in well; Call: inactive

For Dbndd2 (GeneID 52840), what was measured?
Tnf reporter robust z-score: 1.48; fewer than 50 cells in well: enough cells in well; Call: inactive

Which result is listed for Sf3a3 (GeneID 75062)?
Tnf reporter robust z-score: -1.45; fewer than 50 cells in well: enough cells in well; Call: active

For Atp6v0b (GeneID 114143), what does the deposit list?
Tnf reporter robust z-score: -0.29; fewer than 50 cells in well: enough cells in well; Call: inactive

With Or4f58 (GeneID 258271), what was measured?
Tnf reporter robust z-score: -0.8; fewer than 50 cells in well: enough cells in well; Call: inactive
